Reference: US20260043031A1, “COMPOSITIONS AND METHODS FOR INHIBITING ADENYLATE CYCLASE 9 (AC9)” (INSTITUT DE CARDIOLOGIE DE MONTRÉAL, priority 2022, published 2026)

Test system: HepG2 cells
Assay: 3H-CE-LDL cell association assay
Assay type: cell-based, human
Details: HepG2, siAC9 plus 5 μM atorvastatin 24 h before assay
Procedure: HepG2 (hepatocellular carcinoma) cells were growth in Eagle's minimum essential medium (EMEM). The medium was supplemented with 10% FBS, 100 units/ml penicillin, and 100 μg/ml streptomycin. Cells were cultured in 5% CO2 at 37° C. and were harvested once a week with trypsin-EDTA. For experiments, cells were trypsinized, seeded, and cultured at least for 3 days prior to the assays.
HepG2 cells were transfected with ADCY9, SREBP2, LDLr or scramble siRNA in the presence of Lipofectamine RNAiMAX in Opti-MEM for 72 h unless otherwise stated.
Lipoproteins were isolated from human plasma obtained from BioIVT (Westbury, NY). Before the isolation, the plasma was adjusted to 0.01% ethylenediamine tetraacetate (EDTA), 0.02% sodium azide, and 10 μM phenylmethylsulfonyl fluoride (PMSF). Human LDL (d=1.025-1.063 g/ml) was prepared by ultracentrifugation as described by Brissette et al. (doi: 10.1042/bj3180841). […]
Cell association of [^3H]CE-lipoprotein (20 μg of protein/ml) was measured at 37° C. for 4 h in 12-well plates. […] Nonspecific association was assessed by the addition of 1.5 mg of protein/ml of unlabeled lipoproteins. […] Radioactivity counts in the homogenates were obtained with a beta-counter. […] The specific association was calculated by subtracting the nonspecific association from the total association.

## CC(C)c1c(C(=O)Nc2ccccc2)c(-c2ccccc2)c(-c2ccc(F)cc2)n1CC[C@@H](O)C[C@@H](O)CC(=O)O [atorvastatin, reference compound]
  3H-CE-LDL association (LDL cholesterol uptake by LDLr), co-treatment: additive effects
